PubChem BioAssay AID1259308 – NCATS | 2017

Purpose: 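Genes whose loss raises luciferase production in HEK293 cells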 (primary screen)
Cells: human HEK293 embryonic kidney cells stably expressing firefly luciferase (HEK-CMV-Luc2-Hygro)
Reagents: single siRNA against human genes, 0.8 pmol siRNA per well
Timing: 72 h
Read-out: 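Luciferase light (ONE-Glo) measured on one replicate plate set and viability (CellTiter-Glo) on the other, scaled to a negative control siRNA, with robust z-scores and luciferase per cell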
Reading the numbers: total luciferase, z-score and total luciferase, % of control: higher = more reporter protein produced; luciferase per cell, z-score: higher = more reporter output per viable cell
Active means: 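An siRNA counts as active if its total luciferase robust z-score exceeds 3; genes with two or more such siRNAs out of three were retested with fresh siRNAs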
Calls: active = raised luciferase; inactive = no rise
The whole screen tested about 59,000 reagents; shown is an unselected part. Of all reagents, about 1,510 (2.6%) were called active. 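Calls use total luciferase alone and ignore viability, so some active siRNAs may act by altering cell number.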 The numbers tell different reagents against one gene apart. Not all columns of the deposit are shown. No sequences are given here.

no.	gene	siRNA no.	total luciferase, z-score	total luciferase, % of control	luciferase per cell, z-score	Outcome
1	TNNC1	1	-0.00127	81.9	-0.197	inactive
2	TNNC1	2	0.988	102	0.481	inactive
3	TNNC1	3	-2.23	37.6	-3.12	inactive
4	NR1H2	1	0.186	85.6	0.418	inactive
5	NR1H2	2	0.272	87.3	-0.311	inactive
6	NR1H2	3	0.25	86.9	-0.527	inactive
7	GSG1L	1	-1.25	56.9	-0.298	inactive
8	GSG1L	2	0.59	93.6	0.386	inactive
9	GSG1L	3	1.42	110	3.75	inactive
10	KCNH3	1	0.197	85.8	0.219	inactive
11	KCNH3	2	0.103	83.9	0.166	inactive
12	KCNH3	3	0.893	99.6	2.06	inactive
13	BATF2	1	-1.13	59.4	-1.36	inactive
14	BATF2	2	2.28	127	2.27	inactive
15	BATF2	3	0.00699	82	0.431	inactive
16	BGLAP	1	0.241	86.7	0.367	inactive
17	BGLAP	2	-1.67	48.7	-0.649	inactive
18	BGLAP	3	-1.38	54.5	-0.981	inactive
19	LINC00312	1	0.00519	82	0.49	inactive
20	LINC00312	2	1.04	103	0.833	inactive
21	LINC00312	3	1.07	103	1.47	inactive
22	COL4A4	1	1.3	108	1.71	inactive
23	COL4A4	2	0.852	98.8	0.909	inactive
24	COL4A4	3	-0.906	63.9	-0.798	inactive
25	STATH	1	-0.259	76.7	0.33	inactive
26	STATH	2	-1.17	58.5	-0.296	inactive
27	STATH	3	-0.0648	80.6	-0.155	inactive

8 successive entries already listed, quoted:
no.	gene	siRNA no.	total luciferase, z-score	total luciferase, % of control	luciferase per cell, z-score	Outcome
18	BGLAP	3	-1.38	54.5	-0.981	inactive
19	LINC00312	1	0.00519	82	0.49	inactive
20	LINC00312	2	1.04	103	0.833	inactive
21	LINC00312	3	1.07	103	1.47	inactive
22	COL4A4	1	1.3	108	1.71	inactive
23	COL4A4	2	0.852	98.8	0.909	inactive
24	COL4A4	3	-0.906	63.9	-0.798	inactive
25	STATH	1	-0.259	76.7	0.33	inactive

More entries:
no.	gene	siRNA no.	total luciferase, z-score	total luciferase, % of control	luciferase per cell, z-score	Outcome
28	USP1	1	0.467	91.2	0.724	inactive
29	USP1	2	-1.06	60.7	0.135	inactive
30	USP1	3	-0.877	64.4	-1.23	inactive
31	COX7B2	1	1.33	108	2.04	inactive
32	COX7B2	2	-2.26	36.9	-2	inactive
33	COX7B2	3	0.21	86.1	0.425	inactive
34	OR2F1	1	0.388	89.6	0.344	inactive
35	OR2F1	2	-2.87	24.8	-4.25	inactive
36	OR2F1	3	0.322	88.3	-0.338	inactive
37	PI16	1	-0.304	75.8	-0.426	inactive
38	PI16	2	-0.877	64.4	-0.57	inactive
39	PI16	3	0.409	90	0.28	inactive
40	MZF1	1	6.07	203	4.63	active
41	MZF1	2	3.3	148	4.59	active
42	MZF1	3	-0.428	73.4	0.0548	inactive
43	LOC728145 (retired record)	1	0.126	84.4	0.368	inactive
44	LOC728145 (retired record)	2	0.642	94.6	1.06	inactive
45	LOC728145 (retired record)	3	-0.671	68.5	-0.45	inactive
46	STX11	1	-1.36	54.9	1.86	inactive
47	STX11	2	-3.75	7.37	-9.36	inactive
48	STX11	3	0.563	93.1	0.203	inactive
49	RRAGB	1	1.24	106	0.532	inactive
50	RRAGB	2	0.117	84.2	0.431	inactive
51	RRAGB	3	0.677	95.4	0.434	inactive
52	ANKRD34B	1	3.61	154	2.91	active
53	ANKRD34B	2	-0.695	68.1	-0.597	inactive
54	ANKRD34B	3	0.0518	82.9	-0.219	inactive
55	UGP2	1	-0.733	67.3	-0.803	inactive
56	UGP2	2	-0.135	79.2	-0.85	inactive
57	UGP2	3	0.354	88.9	-0.262	inactive
58	LINC02908	1	-0.79	66.2	-0.642	inactive
59	LINC02908	2	1.39	110	1.42	inactive
60	LINC02908	3	-1.75	47.1	-1.88	inactive
61	EEF1E1	1	-0.975	62.5	-1.48	inactive
62	EEF1E1	2	0.798	97.8	0.243	inactive
63	EEF1E1	3	-0.518	71.6	-0.84	inactive
64	WNK2	1	0.759	97	0.615	inactive
65	WNK2	2	1.87	119	1.74	inactive
66	WNK2	3	-0.521	71.5	0.101	inactive
67	TRIM43	1	0.403	89.9	-0.148	inactive
68	TRIM43	2	-1.2	58.1	-0.0376	inactive
69	TRIM43	3	0.735	96.5	0.68	inactive
70	RBM8A	1	1.33	108	4.01	inactive
71	RBM8A	2	1.17	105	4.69	inactive
72	RBM8A	3	1.36	109	3.48	inactive
73	SLC39A14	1	-1.62	49.6	-1.24	inactive
74	SLC39A14	2	-1.09	60.3	-1.47	inactive
75	SLC39A14	3	-0.0695	80.5	-0.0534	inactive
